33 compounds from the supplement of paper PMC4635364 can be followed below.

Molecules are shown by their SMILES. Counter-ions that a name gives are not always drawn. The list shows a part of the results. This data set is noisy: repeats of one test often differ as much as different tests do.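 Human fetal ventral-midbrain neural progenitor line ReNCell VM, differentiated without mitogens. Images stained for doublecortin (early neurons) or tyrosine hydroxylase (dopaminergic neurons) were scored by blinded raters against untreated wells (0 = no change). Repeats and both raters were averaged, and compounds averaging 2 or higher were picked as hits for retesting.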

Test [1] has as its system ReNCell VM. As to the kind of experiment: neuronal differentiation score (DCX+ cell fraction vs untreated, manual image score) (score (-3 to 3)); higher = more neuronal differentiation. As to conditions: 2 uM, 2 weeks.
Test [2] relates to ReNCell VM. As to the kind of experiment: dopaminergic neuron differentiation score (TH+ cell fraction vs untreated, manual image score) (score (0 to 3)); higher = more TH+ dopaminergic neuron differentiation. The conditions noted are these: 2 uM, 4 weeks, BDNF 10 ng/ml + GDNF 10 ng/ml.

`CCCN(CCC)[C@@H]1CCc2c(OC)cccc2[C@@H]1C` [(+)-UH 232 maleate]: in test [1] (library: Tocriscreen), the neuronal differentiation score was inactive: 0. Also, in test [2] (library: Tocriscreen), the “dopaminergic neuron differentiation score” value was inactive: 0.
Turning to `Cc1nc(N)sc1CCN` [Amthamine dihydrobromide], the neuronal differentiation score in test [1] (library: Tocriscreen) was inactive: 0. Further, the “dopaminergic neuron differentiation score” value in test [2] (library: Tocriscreen) is inactive: 0.
Regarding `CC(C)(C)NCC(O)COc1cccc2[nH]c(C#N)cc12` (stereo unspecified) [Cyanopindolol hemifumarate], in test [1] (library: Tocriscreen), the neuronal differentiation score is inactive: 0. For the same compound, in test [2] (library: Tocriscreen), the “dopaminergic neuron differentiation score” value was inactive: 0.
For the compound `CC(=O)CC1CCCCN1` (stereo unspecified), the neuronal differentiation score in test [1] (library: Spectrum) was inactive: 0. Further, in test [2] (library: Spectrum), the “dopaminergic neuron differentiation score” value was inactive: 0.
`NC(N)=NOCC[C@H](N)C(=O)O` [L-Canavanine sulfate]: in test [1] (library: LOPAC), the neuronal differentiation score is inactive: -1. The “dopaminergic neuron differentiation score” value in test [2] (library: LOPAC) was inactive: 0.
Take `O=[N+]([O-])c1cc([As](=O)(O)O)ccc1O` [Roxarsone]: the neuronal differentiation score in test [1] (library: Prestwick) was inactive: 0. Besides, the “dopaminergic neuron differentiation score” value in test [2] (library: Prestwick) was inactive: 0.
Regarding `Cc1ccc(/N=C/N(C)/C=N/c2ccc(C)cc2C)c(C)c1`, the neuronal differentiation score in test [1] (library: Spectrum) is inactive: 0. The “dopaminergic neuron differentiation score” value in test [2] (library: Spectrum) is inactive: 1.
As to `CC(C)[N+](C)(CCC(C(N)=O)(c1ccccc1)c1ccccc1)C(C)C` [Isopropamide iodide], the neuronal differentiation score in test [1] (library: Prestwick) is inactive: 0. Besides, the “dopaminergic neuron differentiation score” value in test [2] (library: Prestwick) is inactive: 0.
As to `Cc1[nH]c2ccccc2c1CN(C)C`, in test [1] (library: Spectrum), the neuronal differentiation score was inactive: 0. In addition, in test [2] (library: Spectrum), the “dopaminergic neuron differentiation score” value was inactive: 1.
`O=[N+]([O-])O[C@@H]1CO[C@H]2[C@@H]1OC[C@@H]2O`: the neuronal differentiation score in test [1] (library: Spectrum) is inactive: 0. In addition, the “dopaminergic neuron differentiation score” value in test [2] (library: Spectrum) was inactive: 0.
Regarding `COc1ccc(CCN2CCC(Nc3nc4ccccc4n3Cc3ccc(F)cc3)CC2)cc1`, the neuronal differentiation score in test [1] (library: Spectrum) is inactive: 0. For the same compound, in test [2] (library: Spectrum), the “dopaminergic neuron differentiation score” value is inactive: 0.
As for `CC(=O)OC1CN2CCC1CC2` (stereo unspecified), the neuronal differentiation score in test [1] (library: Spectrum) was inactive: 0. In test [2] (library: Spectrum), the “dopaminergic neuron differentiation score” value was inactive: 0.
As for `CN1CCC2(C)c3cc(O)ccc3N(C)C12` (single isomer, unassigned; (-)) [(-)-Eseroline fumarate salt], the neuronal differentiation score in test [1] (library: Prestwick) is inactive: 0. Also, the “dopaminergic neuron differentiation score” value in test [2] (library: Prestwick) is inactive: 0.
Take `C/C=C1/CN2CC[C@]34C(=C(C=O)C1CC23)Nc1c(O)cccc14` (stereo partly specified) [vincanidine]: in test [1] (library: Natural), the neuronal differentiation score was inactive: 1. Besides, in test [2] (library: Natural), the “dopaminergic neuron differentiation score” value was inactive: 0.
As for `NP(N)(=O)NC(=O)c1ccc(F)cc1`, the neuronal differentiation score in test [1] (library: Spectrum) is inactive: 0. In addition, the “dopaminergic neuron differentiation score” value in test [2] (library: Spectrum) is inactive: 0.
For `CCN(C(C)=O)c1cccc(-c2ccnc3c(C#N)cnn23)c1`, the neuronal differentiation score in test [1] (library: Spectrum) is inactive: 0. Also, the “dopaminergic neuron differentiation score” value in test [2] (library: Spectrum) was inactive: 0.
Take `CN(C)C(=S)SSC(=S)N(C)C`: the neuronal differentiation score in test [1] (library: Spectrum) is inactive: 0. Moreover, the “dopaminergic neuron differentiation score” value in test [2] (library: Spectrum) was inactive: 0.
In the case of `Cc1ncc(C[n+]2csc(CCO)c2C)c(=O)[nH]1`, the neuronal differentiation score in test [1] (library: Spectrum) was inactive: 0. Also, the “dopaminergic neuron differentiation score” value in test [2] (library: Spectrum) was inactive: 0.
As to `C=C[C@H]1CN2CC[C@H]1C[C@H]2[C@H](O)c1ccnc2ccccc12`, the neuronal differentiation score in test [1] (library: Spectrum) was inactive: 0. Moreover, in test [2] (library: Spectrum), the “dopaminergic neuron differentiation score” value was inactive: 0.
`O=C1NC(=O)c2c1c1c3ccccc3n3c1c1c2c2ccccc2n1[C@H]1CC[C@@H]3O1`: in test [1] (library: Tocriscreen), the neuronal differentiation score was inactive: 0. In test [2] (library: Tocriscreen), the “dopaminergic neuron differentiation score” value was inactive: 0.
In the case of `CN1[C@@H](C[C@@H](O)c2ccccc2)CCC[C@H]1C[C@H](O)c1ccccc1` [Lobelanidine hydrochloride], the neuronal differentiation score in test [1] (library: Phytochemical) was inactive: 0. Also, the “dopaminergic neuron differentiation score” value in test [2] (library: Phytochemical) was inactive: 0.
With `O=[N+]([O-])c1cc(O)c(O)c([N+](=O)[O-])c1` [3,5-Dinitrocatechol], the neuronal differentiation score in test [1] (library: LOPAC) was inactive: 0. The “dopaminergic neuron differentiation score” value in test [2] (library: LOPAC) is inactive: 0.
Take `COc1ccc2[nH]cc(CCN)c2c1`: the neuronal differentiation score in test [1] (library: Spectrum) was inactive: 0. For the same compound, the “dopaminergic neuron differentiation score” value in test [2] (library: Spectrum) is inactive: 0.
As for `N#C/C(=C\c1cccc(O)c1)C(=O)O` [alpha-CYANO-3-HYDROXYCINNAMIC ACID], the neuronal differentiation score in test [1] (library: Spectrum) was inactive: 0. Further, the “dopaminergic neuron differentiation score” value in test [2] (library: Spectrum) was inactive: 0.
On to `CN(C)C(=O)Oc1cc(OC(=O)N(C)C)cc(C(O)CNC(C)(C)C)c1` (stereo unspecified), for which the neuronal differentiation score in test [1] (library: Spectrum) was inactive: 0. Besides, the “dopaminergic neuron differentiation score” value in test [2] (library: Spectrum) is inactive: 0.
In the case of `CC[C@@H](CO)NC(=O)[C@@H]1C=C2c3cccc4c3c(cn4C)C[C@H]2N(C)C1`, the neuronal differentiation score in test [1] (library: Spectrum) was inactive: 0. In test [2] (library: Spectrum), the “dopaminergic neuron differentiation score” value was inactive: 0.
`COc1ccc2c(c1O)-c1cccc3c1[C@@H](C2)N(C)CC3` [R(-)-Apocodeine hydrochloride]: the neuronal differentiation score in test [1] (library: LOPAC) is active: 2. Moreover, the “dopaminergic neuron differentiation score” value in test [2] (library: LOPAC) is inactive: 0.
In the case of `NCCc1c[nH]c2ccc(O)cc12`, the neuronal differentiation score in test [1] (library: Spectrum) was inactive: 0. Further, the “dopaminergic neuron differentiation score” value in test [2] (library: Spectrum) was inactive: 0.
Turning to `O=C(CCCN1CCC(n2c(=O)[nH]c3ccccc32)CC1)c1ccc(F)cc1` [Benperidol], the neuronal differentiation score in test [1] (library: Prestwick) is inactive: 0. Further, in test [2] (library: Prestwick), the “dopaminergic neuron differentiation score” value was inactive: 0.
`CC[C@@H]1CN2CC[C@@H]1C[C@H]2[C@H](O)c1ccnc2ccc(O)cc12` [Hydrocupreine]: the neuronal differentiation score in test [1] (library: Phytochemical) is inactive: 0. In addition, in test [2] (library: Phytochemical), the “dopaminergic neuron differentiation score” value is inactive: 0.
Take `CC1=C2[C@H]3OC(=O)[C@@H](C)[C@@H]3CC[C@@]2(C)C=CC1=O` [alpha-Santonin]: in test [1] (library: Phytochemical), the neuronal differentiation score is inactive: 0. Moreover, the “dopaminergic neuron differentiation score” value in test [2] (library: Phytochemical) was inactive: 0.
`C[C@]12CC[C@H]3[C@@H](CC[C@]4(O)C[C@@H](O)CC[C@]34C=O)[C@@]1(O)CC[C@@H]2C1=CC(=O)OC1`: in test [1] (library: Spectrum), the neuronal differentiation score was inactive: 0. The “dopaminergic neuron differentiation score” value in test [2] (library: Spectrum) was inactive: 0.
Consider `CC(C)(C)NCC(O)c1ccccc1Cl` (stereo unspecified) [Tulobuterol], for which the neuronal differentiation score in test [1] (library: Prestwick) is inactive: 0. Further, the “dopaminergic neuron differentiation score” value in test [2] (library: Prestwick) is inactive: 0.
